Among the data in the supplement of paper PMC10849652 are log2 fold change values, retold here.

Chains of the proteins cited; added tags and fusions are not shown. Lines headed by an entry give the natural chain unless they say otherwise; changes in a name come on top.
UniProt P16989, whole entry, looked up: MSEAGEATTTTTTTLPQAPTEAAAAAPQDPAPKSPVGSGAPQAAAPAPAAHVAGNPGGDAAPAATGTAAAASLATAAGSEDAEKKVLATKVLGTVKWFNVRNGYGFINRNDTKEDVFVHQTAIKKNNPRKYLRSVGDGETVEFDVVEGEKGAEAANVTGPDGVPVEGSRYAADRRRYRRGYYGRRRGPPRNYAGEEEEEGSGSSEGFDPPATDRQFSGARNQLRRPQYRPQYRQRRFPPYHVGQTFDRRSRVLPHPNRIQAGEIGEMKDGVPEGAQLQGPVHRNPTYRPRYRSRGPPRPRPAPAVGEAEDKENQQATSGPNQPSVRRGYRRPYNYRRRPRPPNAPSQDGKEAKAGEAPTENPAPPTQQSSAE
UniProt O14980, whole entry, looked up: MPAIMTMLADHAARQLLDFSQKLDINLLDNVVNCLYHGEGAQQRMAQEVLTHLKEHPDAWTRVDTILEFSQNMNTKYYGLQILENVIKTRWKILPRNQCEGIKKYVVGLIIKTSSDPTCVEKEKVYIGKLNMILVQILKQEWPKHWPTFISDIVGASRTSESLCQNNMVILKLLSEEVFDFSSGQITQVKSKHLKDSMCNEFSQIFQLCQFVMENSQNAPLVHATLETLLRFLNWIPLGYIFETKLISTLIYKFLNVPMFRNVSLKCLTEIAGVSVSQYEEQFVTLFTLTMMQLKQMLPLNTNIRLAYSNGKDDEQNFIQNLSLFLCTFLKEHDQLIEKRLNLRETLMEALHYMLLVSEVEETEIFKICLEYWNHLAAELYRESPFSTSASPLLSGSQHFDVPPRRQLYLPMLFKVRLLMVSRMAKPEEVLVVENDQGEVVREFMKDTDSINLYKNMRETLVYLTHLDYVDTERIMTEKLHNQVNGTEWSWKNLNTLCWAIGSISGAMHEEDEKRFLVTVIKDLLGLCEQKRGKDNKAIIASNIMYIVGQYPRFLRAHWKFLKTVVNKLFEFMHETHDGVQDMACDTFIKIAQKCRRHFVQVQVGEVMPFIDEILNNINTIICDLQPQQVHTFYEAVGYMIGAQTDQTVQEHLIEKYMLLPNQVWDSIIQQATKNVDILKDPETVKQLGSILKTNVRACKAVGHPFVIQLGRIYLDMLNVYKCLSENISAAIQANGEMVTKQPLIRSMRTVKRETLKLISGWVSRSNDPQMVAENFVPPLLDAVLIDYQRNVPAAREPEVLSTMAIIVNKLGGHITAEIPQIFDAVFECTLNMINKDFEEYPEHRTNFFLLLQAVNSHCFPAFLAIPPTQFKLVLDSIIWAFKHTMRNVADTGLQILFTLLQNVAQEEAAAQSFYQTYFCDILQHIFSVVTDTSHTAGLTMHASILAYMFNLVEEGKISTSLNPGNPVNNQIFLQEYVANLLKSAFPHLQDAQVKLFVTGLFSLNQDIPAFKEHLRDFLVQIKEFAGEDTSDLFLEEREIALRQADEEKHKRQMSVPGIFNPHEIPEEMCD
UniProt Q969M3: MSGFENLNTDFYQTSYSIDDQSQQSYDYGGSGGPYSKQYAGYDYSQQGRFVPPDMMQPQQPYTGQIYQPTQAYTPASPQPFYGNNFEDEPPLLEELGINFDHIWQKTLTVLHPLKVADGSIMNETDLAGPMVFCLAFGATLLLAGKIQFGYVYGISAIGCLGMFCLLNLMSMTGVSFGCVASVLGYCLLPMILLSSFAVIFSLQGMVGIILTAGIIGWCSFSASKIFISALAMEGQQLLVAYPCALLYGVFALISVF
UniProt Q9UPT8: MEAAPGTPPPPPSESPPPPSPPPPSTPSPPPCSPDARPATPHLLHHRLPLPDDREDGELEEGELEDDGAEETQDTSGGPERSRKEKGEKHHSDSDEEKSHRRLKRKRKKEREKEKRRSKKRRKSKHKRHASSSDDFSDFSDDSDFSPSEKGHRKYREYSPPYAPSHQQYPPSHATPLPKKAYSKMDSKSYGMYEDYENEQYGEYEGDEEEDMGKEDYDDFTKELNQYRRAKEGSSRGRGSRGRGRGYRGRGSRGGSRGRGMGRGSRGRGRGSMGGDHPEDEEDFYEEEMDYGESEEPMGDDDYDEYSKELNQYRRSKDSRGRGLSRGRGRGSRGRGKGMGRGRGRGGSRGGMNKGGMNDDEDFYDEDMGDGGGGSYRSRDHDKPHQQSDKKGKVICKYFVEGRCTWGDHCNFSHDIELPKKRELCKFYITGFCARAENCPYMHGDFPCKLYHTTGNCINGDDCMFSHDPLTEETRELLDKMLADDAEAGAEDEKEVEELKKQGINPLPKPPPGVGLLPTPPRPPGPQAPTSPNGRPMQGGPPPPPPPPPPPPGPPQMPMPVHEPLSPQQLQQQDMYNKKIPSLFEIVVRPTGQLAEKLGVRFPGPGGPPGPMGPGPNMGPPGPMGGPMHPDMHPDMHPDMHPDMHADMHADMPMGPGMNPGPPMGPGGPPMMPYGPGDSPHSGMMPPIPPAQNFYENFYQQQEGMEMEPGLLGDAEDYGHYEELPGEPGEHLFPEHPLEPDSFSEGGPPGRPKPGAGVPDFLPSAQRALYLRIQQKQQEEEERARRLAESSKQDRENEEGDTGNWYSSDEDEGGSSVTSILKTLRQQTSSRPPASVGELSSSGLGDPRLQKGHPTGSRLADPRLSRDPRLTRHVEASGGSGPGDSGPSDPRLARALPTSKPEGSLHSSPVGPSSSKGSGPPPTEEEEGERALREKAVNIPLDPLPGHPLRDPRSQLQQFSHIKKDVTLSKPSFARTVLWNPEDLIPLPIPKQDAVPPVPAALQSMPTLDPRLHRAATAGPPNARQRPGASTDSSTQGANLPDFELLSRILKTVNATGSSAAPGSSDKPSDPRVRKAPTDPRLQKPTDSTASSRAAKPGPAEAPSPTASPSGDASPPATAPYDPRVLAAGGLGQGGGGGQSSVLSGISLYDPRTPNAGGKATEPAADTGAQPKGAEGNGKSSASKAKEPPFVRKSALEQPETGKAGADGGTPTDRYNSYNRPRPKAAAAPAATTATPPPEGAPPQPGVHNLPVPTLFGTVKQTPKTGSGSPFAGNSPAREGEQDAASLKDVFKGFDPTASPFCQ
UniProt Q8WU90: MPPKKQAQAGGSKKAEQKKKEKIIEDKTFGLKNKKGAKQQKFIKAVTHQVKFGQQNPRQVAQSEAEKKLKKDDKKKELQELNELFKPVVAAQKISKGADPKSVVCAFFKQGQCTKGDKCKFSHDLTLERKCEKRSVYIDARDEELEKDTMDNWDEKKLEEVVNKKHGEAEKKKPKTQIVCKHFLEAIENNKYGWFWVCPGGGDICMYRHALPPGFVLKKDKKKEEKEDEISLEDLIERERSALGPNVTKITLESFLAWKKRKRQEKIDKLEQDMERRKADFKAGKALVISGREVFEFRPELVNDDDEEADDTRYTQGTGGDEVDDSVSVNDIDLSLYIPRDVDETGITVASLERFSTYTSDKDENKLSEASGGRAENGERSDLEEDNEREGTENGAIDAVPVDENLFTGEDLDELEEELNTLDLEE
UniProt P18887, whole entry, looked up: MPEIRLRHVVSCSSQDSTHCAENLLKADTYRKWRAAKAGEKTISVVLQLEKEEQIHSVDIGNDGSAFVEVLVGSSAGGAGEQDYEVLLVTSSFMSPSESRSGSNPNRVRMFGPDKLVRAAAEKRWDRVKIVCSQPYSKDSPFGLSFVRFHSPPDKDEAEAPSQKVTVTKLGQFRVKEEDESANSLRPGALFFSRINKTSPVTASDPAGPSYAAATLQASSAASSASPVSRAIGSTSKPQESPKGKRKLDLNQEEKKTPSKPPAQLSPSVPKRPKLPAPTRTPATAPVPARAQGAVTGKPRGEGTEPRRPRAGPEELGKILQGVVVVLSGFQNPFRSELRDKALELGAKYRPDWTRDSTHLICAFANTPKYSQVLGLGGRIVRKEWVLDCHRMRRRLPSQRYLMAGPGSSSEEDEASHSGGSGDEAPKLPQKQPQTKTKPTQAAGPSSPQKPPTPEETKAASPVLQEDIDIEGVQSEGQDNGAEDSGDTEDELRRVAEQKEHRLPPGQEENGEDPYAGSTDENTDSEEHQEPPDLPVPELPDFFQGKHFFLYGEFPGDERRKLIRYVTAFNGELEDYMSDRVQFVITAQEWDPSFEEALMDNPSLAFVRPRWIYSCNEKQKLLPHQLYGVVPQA
UniProt Q96KR1: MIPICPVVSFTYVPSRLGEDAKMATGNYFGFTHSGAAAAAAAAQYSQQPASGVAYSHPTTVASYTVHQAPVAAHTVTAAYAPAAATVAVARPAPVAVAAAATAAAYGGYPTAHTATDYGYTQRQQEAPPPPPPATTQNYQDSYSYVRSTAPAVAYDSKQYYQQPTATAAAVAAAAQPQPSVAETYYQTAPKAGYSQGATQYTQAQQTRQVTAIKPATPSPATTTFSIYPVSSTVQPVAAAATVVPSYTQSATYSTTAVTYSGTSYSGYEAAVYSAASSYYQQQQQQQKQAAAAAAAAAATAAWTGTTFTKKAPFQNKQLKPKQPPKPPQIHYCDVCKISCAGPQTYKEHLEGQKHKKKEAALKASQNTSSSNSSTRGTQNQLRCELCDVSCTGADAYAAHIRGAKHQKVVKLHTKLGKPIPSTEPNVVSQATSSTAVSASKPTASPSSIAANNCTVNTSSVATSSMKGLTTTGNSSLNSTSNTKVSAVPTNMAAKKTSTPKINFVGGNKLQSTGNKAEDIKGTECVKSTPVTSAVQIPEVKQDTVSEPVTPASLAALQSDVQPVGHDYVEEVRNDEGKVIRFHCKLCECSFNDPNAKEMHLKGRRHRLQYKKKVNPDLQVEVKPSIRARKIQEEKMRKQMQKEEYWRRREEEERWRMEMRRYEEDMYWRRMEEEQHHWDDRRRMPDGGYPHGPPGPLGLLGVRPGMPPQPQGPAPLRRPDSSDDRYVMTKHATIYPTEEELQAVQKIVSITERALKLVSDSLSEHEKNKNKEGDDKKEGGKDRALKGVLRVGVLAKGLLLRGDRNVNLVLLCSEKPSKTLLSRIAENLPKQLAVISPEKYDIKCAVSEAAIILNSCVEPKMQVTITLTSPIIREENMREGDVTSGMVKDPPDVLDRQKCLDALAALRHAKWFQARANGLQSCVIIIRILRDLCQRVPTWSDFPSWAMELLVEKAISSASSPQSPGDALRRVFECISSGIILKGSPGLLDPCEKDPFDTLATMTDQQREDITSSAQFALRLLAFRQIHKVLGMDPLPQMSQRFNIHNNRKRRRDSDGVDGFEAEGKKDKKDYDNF
UniProt Q6FIF0: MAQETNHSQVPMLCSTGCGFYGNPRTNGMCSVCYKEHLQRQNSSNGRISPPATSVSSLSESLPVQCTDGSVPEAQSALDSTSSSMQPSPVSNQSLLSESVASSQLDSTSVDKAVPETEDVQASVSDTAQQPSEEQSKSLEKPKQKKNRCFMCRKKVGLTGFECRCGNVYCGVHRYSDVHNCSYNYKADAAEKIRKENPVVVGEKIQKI
UniProt Q8N5A5: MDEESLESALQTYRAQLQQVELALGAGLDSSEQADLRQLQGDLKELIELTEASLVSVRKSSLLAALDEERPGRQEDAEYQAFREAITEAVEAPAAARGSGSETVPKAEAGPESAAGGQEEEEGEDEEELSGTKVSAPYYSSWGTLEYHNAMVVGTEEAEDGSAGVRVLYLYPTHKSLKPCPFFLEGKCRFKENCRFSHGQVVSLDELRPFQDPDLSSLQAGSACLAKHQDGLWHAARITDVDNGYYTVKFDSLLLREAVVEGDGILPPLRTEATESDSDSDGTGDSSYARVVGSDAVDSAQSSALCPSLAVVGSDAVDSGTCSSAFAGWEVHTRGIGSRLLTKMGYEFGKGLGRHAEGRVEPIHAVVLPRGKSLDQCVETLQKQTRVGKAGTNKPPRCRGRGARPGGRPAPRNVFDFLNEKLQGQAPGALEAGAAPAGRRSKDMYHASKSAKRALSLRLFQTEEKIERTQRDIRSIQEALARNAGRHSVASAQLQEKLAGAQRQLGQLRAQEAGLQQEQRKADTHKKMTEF
UniProt Q9BSR8: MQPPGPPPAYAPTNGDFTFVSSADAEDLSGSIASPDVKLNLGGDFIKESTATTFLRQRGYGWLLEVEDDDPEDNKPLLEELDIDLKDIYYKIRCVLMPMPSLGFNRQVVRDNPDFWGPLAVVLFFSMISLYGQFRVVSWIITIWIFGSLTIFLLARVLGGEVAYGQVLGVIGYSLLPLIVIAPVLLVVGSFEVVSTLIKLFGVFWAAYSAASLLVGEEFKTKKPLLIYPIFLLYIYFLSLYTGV
UniProt A8MPS7: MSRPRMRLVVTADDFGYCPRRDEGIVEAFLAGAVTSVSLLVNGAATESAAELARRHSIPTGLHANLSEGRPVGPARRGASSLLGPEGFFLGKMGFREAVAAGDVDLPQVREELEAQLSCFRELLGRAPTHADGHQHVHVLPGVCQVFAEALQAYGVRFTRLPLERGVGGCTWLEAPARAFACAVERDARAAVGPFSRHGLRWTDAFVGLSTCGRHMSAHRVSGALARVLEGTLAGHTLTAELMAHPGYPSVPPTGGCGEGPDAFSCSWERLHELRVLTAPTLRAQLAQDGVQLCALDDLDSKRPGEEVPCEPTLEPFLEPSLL

Some of the results follow.

Compound in the first experiment: O=C(O)c1ccc2c(c1)nc(Nc1cccc(Cl)c1)c1ccncc12 [silmitasertib]
The experiment in a line: log2 fold change, soluble protein after heating vs DMSO (PISA); higher = thermal stabilisation; K562 lysate, 10 uM; active = over 0.2 and 3.5 SD of the protein, either way, in both replicates (recomputed). The essentials:
(§1)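 Values give the log-two fold change in thermal stability against solvent controls, from duplicates. Crude K562 extract at 1 mg/mL protein, made by dounce homogenisation in PBS pH 7.4 with 1 mM MgCl2, was treated with 10 μM compound for 30 min. After 3 min heating across 48°C-58°C, aliquots were pooled, adjusted to 0.5% NP-40 at 4°C and centrifuged at 21,000xg for 90 min. The supernatant was measured by TMTpro 16plex LC-MS/MS with channel sums equalised.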
For YBX3 (UniProt P16989), the log2 fold change was inactive: -0.015.

As to ZBED8 (UniProt Q8IZ13), the log2 fold change was inactive: -0.032.

Take XPO7 (UniProt Q9UIA9): the log2 fold change was inactive: 0.001.

Turning to YIPF3 (UniProt Q9GZM5), the log2 fold change was inactive: 0.011.

As for XPO6 (UniProt Q96QU8), the log2 fold change is inactive: 0.049.

Take ZDHHC3 isoform 2 (UniProt Q9NYG2): the log2 fold change is inactive: 0.094.

With ZFPM1 (UniProt Q8IX07), the log2 fold change was inactive: 0.

Consider YES1 (UniProt P07947), for which the log2 fold change is inactive: -0.187.

Turning to ZFAND2B (UniProt Q8WV99), the log2 fold change was inactive: 0.055.

Take XPO1 (UniProt O14980): the log2 fold change was inactive: 0.003.

Consider ZCCHC3 (UniProt Q9NUD5), for which the log2 fold change was inactive: 0.123.

For the target YIPF5 isoform 3 (UniProt Q969M3), the log2 fold change was inactive: -0.093.

As to ZC3H18 (UniProt E7ERS3), the log2 fold change is inactive: -0.015.

Regarding YBX3 isoform 2 (UniProt P16989), the log2 fold change is inactive: 0.015.

For ZC3H4 (UniProt Q9UPT8), the log2 fold change is inactive: -0.079.

On to YJU2 (UniProt Q9BW85), for which the log2 fold change was inactive: -0.049.

On to ZC3H15 (UniProt Q8WU90), for which the log2 fold change was inactive: -0.049.

Consider YIPF6 (UniProt Q96EC8), for which the log2 fold change was inactive: -0.095.

Regarding XRCC1 (UniProt P18887), the log2 fold change is inactive: 0.051.

For the target ZFR (UniProt Q96KR1), the log2 fold change was inactive: 0.029.

With YME1L1 (UniProt Q96TA2), the log2 fold change was inactive: 0.007.

Consider YTHDC2 (UniProt Q9H6S0), for which the log2 fold change was inactive: -0.007.

Consider ZFAND6 (UniProt Q6FIF0), for which the log2 fold change is inactive: -0.08.

In the case of ZER1 (UniProt Q7Z7L7), the log2 fold change is inactive: -0.076.

For the target XPNPEP3 (UniProt Q9NQH7), the log2 fold change is inactive: 0.014.

For ZBED1 (UniProt O96006), the log2 fold change is inactive: 0.02.

Consider XPOT (UniProt O43592), for which the log2 fold change was inactive: 0.035.

Consider YRDC (UniProt Q86U90), for which the log2 fold change was inactive: 0.006.

Consider YY1 (UniProt P25490), for which the log2 fold change was inactive: -0.001.

With ZGPAT (UniProt Q8N5A5), the log2 fold change was inactive: 0.032.

As for XRCC6 (UniProt P12956), the log2 fold change was inactive: 0.015.

Regarding YKT6 (UniProt O15498), the log2 fold change was inactive: 0.009.

In the case of YARS2 (UniProt Q9Y2Z4), the log2 fold change was inactive: 0.021.

Take ZC3H8 (UniProt Q8N5P1): the log2 fold change was inactive: 0.052.

For the target ZCCHC8 (UniProt Q6NZY4), the log2 fold change is inactive: -0.033.

For YLPM1 (UniProt P49750), the log2 fold change was inactive: -0.011.

On to ZC3H7B (UniProt Q9UGR2), for which the log2 fold change is inactive: -0.01.

On to YIPF4 (UniProt Q9BSR8), for which the log2 fold change was inactive: -0.052.

Regarding YDJC (UniProt A8MPS7), the log2 fold change is inactive: 0.023.

With ZBTB21 (UniProt Q9ULJ3), the log2 fold change is inactive: -0.013.

Compound in the next experiment: O=C1NC(=O)C(c2cnc3ccccn23)=C1c1cn2c3c(cc(F)cc13)CN(C(=O)N1CCCCC1)CC2
Described as above. A digest of the protocol: as §1
Regarding YBX3 (UniProt P16989), the log2 fold change was inactive: 0.032.

In the case of ZBED8 (UniProt Q8IZ13), the log2 fold change is inactive: 0.022.

Consider XPO7 (UniProt Q9UIA9), for which the log2 fold change was inactive: -0.019.

Take YIPF3 (UniProt Q9GZM5): the log2 fold change is inactive: -0.02.

XPO6 (UniProt Q96QU8): the log2 fold change is inactive: -0.031.

Turning to ZDHHC3 isoform 2 (UniProt Q9NYG2), the log2 fold change is inactive: -0.072.

For the target ZFPM1 (UniProt Q8IX07), the log2 fold change was inactive: -0.03.

As for YES1 (UniProt P07947), the log2 fold change is inactive: -0.054.

Regarding ZFAND2B (UniProt Q8WV99), the log2 fold change is inactive: -0.057.

Regarding XPO1 (UniProt O14980), the log2 fold change was inactive: -0.001.

ZCCHC3 (UniProt Q9NUD5): the log2 fold change is inactive: -0.055.

Consider YIPF5 isoform 3 (UniProt Q969M3), for which the log2 fold change is inactive: -0.142.

On to ZC3H18 (UniProt E7ERS3), for which the log2 fold change was inactive: -0.064.

For YBX3 isoform 2 (UniProt P16989), the log2 fold change is inactive: -0.056.

Regarding ZC3H4 (UniProt Q9UPT8), the log2 fold change was inactive: 0.043.

YJU2 (UniProt Q9BW85): the log2 fold change was inactive: -0.019.

ZC3H15 (UniProt Q8WU90): the log2 fold change was inactive: -0.024.

Take YIPF6 (UniProt Q96EC8): the log2 fold change was inactive: -0.016.

In the case of XRCC1 (UniProt P18887), the log2 fold change was inactive: 0.006.

As to ZFR (UniProt Q96KR1), the log2 fold change is inactive: -0.025.

Regarding YME1L1 (UniProt Q96TA2), the log2 fold change is inactive: -0.008.

Take YTHDC2 (UniProt Q9H6S0): the log2 fold change was inactive: 0.018.

For ZFAND6 (UniProt Q6FIF0), the log2 fold change was inactive: 0.033.

Take ZER1 (UniProt Q7Z7L7): the log2 fold change is inactive: -0.068.

Turning to XPNPEP3 (UniProt Q9NQH7), the log2 fold change is inactive: -0.01.

Take ZBED1 (UniProt O96006): the log2 fold change is inactive: -0.028.

As to XPOT (UniProt O43592), the log2 fold change is inactive: 0.009.

Consider YRDC (UniProt Q86U90), for which the log2 fold change was inactive: -0.017.

In the case of YY1 (UniProt P25490), the log2 fold change was inactive: -0.045.

Regarding ZGPAT (UniProt Q8N5A5), the log2 fold change was inactive: 0.08.

Consider XRCC6 (UniProt P12956), for which the log2 fold change was inactive: 0.012.

Take YKT6 (UniProt O15498): the log2 fold change is inactive: -0.05.

For YARS2 (UniProt Q9Y2Z4), the log2 fold change was inactive: 0.004.

For the target ZC3H8 (UniProt Q8N5P1), the log2 fold change was inactive: -0.011.

Take ZCCHC8 (UniProt Q6NZY4): the log2 fold change is inactive: 0.

Regarding YLPM1 (UniProt P49750), the log2 fold change was inactive: 0.017.

On to ZC3H7B (UniProt Q9UGR2), for which the log2 fold change is inactive: 0.01.

As for YIPF4 (UniProt Q9BSR8), the log2 fold change is inactive: 0.02.

YDJC (UniProt A8MPS7): the log2 fold change is inactive: -0.051.

As to ZBTB21 (UniProt Q9ULJ3), the log2 fold change was inactive: -0.017.
